# Measurements published in patent US12150940B2, “WASp-protecting small molecules, compositions, methods and uses thereof in the treatment of innate and acquired immune-related disorders or conditions” (BAR ILAN UNIVERSITY, priority 2016, dated 2024).
# Some results were stated once for a whole list of compounds, not compound by compound. Some compounds share one range, which may span the group rather than tell each member.
# Target: T1, human WASp (Homo sapiens, UniProt P42768, K230R/R34Q)
# T1 construct: expressed in transfected cells; host or cells: HEK 293T, transient transfection; unpurified cell lysate
# T1 sequence (P42768 1-502 R34Q/K230R): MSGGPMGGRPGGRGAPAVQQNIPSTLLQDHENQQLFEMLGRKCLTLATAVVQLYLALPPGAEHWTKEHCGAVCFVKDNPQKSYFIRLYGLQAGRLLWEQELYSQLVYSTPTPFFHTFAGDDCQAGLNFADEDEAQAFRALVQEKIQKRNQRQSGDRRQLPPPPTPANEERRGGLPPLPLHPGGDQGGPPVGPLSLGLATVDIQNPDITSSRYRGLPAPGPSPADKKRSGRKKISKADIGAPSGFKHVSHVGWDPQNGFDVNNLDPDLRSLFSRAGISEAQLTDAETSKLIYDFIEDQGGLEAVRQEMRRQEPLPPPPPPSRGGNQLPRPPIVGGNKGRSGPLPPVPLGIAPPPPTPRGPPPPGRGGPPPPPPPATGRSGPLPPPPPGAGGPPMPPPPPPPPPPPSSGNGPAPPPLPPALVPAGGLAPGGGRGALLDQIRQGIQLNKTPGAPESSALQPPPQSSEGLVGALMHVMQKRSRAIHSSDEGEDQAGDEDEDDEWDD
# Assay: MicroScale Thermophoresis (MST) binding, YFP-WASp in HEK 293T cell lysate
# Conditions: SMCs 100 μM-3 nM, 60% MST power, range stated over the four SMCs, lower bound in nM, upper bound in μM, read-out: dissociation constants (KD)
# Experimental: Diluted cell lysates of YFP-WASp/N-WASp/WAVE2-expressing HEK 293T cells were incubated with serially-diluted (100 μM-3 nM) SMCs. The mixed lysates and SMCs were then loaded into standard-treated Monolith™ capillaries and the fluorescence of the samples was measured by the Monolith NT.115 instrument at 60% MST power. Binding curves of WASp with SMC #6 (FIG. 3A), SMC #30 (FIG. 3B), SMC #33 (FIG. 3C), SMC #34 (FIG. 3D) and Y-27632 (FIG. 3E) or of N-WASp (FIG. 3F) or WAVE2 (FIG. 3G) with SMC #34 were generated by the NanoTemper Analysis 2.231 software. Normalized fluorescence (hot fluorescence/initial fluorescence) is plotted as a function of SMC concentration. Data shown are representative of at least three independent experiments.
# YFP-tagged WASp was obtained from cell lysates of Human Embryonic Kidney (HEK) 293T, transiently transfected with YFP-WASp/WAVE2/N-WASp by DNA-calcium phosphate co-precipitation as previously described (Reicher et al, 2012). MST measurements were performed using the protein purification-free method described by Khavrutskii et al. (Khavrutskii et al, 2013). Briefly, SMCs were serially diluted over three orders of magnitude (100 μM-3 nM) in 1×PBS supplemented with 0.05% Tween-20 in 200 μL PCR-tubes. Then, YFP-WASp/WAVE2/N-WASp-containing cell lysate was added from a doubly diluted sample in the same buffer and the samples were gently mixed. The samples were allowed to incubate at room temperature for 30 min before being loaded into standard-treated Monolith™ capillaries (NanoTemper). After loading into the instrument (Monolith NT.115, NanoTemper), the samples were measured by standard protocols at 60% MST power. The changes of the fluorescent thermophoresis signals were plotted against the concentration of the serially diluted SMCs. KD values were determined using the NanoTemper analysis software (NT Analysis 1.5.37 or 2.2.31).
# Following this in silico screening, the inventors identified eight SMCs (#6, #23, #24, #25, #30, #32, #33, #34, see Table 1). The inventors validated their binding to human WASp, using MST, as described in Experimental procedures. […] The SMCs that specifically bind the degradation pocket of WASp were further evaluated by the inventors.
row,Compound,Kd [nM]
1,"CC(=O)N[C@H]1C[C@@H](c2ccc3c(c2)nnn3C)O[C@@H](c2ccc(Cl)cc2)C1 [SMC #6, N-[(2R,4R,6S)-2-(4-chlorophenyl)-6-(1-methylbenzotriazol-5-yl)oxan-4-yl]acetamide]",25 to 790
2,"COC(=O)c1ccc2c(=O)n(Cc3ccc(C(=O)NC4CCCC4)cc3)c(=S)[nH]c2c1 [SMC #30, 3-(4-Cyclopentylcarbamoyl-benzyl)-4-oxo-2-thioxo-1,2,3,4-tetrahydro-quinazoline-7-carboxylic acid methyl ester]",25 to 790
3,"Cc1ccccc1N(CC(=O)NCc1ccccc1)C(=O)CCC(=O)Nc1nccs1 [SMC #33, N′-[2-(benzylamino)-2-oxoethyl]-N′-(2-methylphenyl)-N-(1,3-thiazol-2-yl)butanediamide]",25 to 790
4,"CC1CCCC(C)N1C(=O)CSc1nnc(COc2cccc3cccnc23)o1 (stereo not shown) [SMC #34, 1-(2,6-dimethylpiperidin-1-yl)-2-[[5-(quinolin-8-yloxymethyl)-1,3,4-oxadiazol-2-yl]sulfanyl]ethanone]",25 to 790
